The target of this experiment is 5-HT5A (Homo sapiens, UniProt P47898). Briefly: Affinity of selected compounds for 5-HT5A (Ki). The format is binding. The method, then:
In both assays, different concentrations of the test substances are used and the Ki and IC50 values are determined.

Protein sequences, listed by entry. Tags and fused reporters are not part of them.
UniProt P47898, whole entry: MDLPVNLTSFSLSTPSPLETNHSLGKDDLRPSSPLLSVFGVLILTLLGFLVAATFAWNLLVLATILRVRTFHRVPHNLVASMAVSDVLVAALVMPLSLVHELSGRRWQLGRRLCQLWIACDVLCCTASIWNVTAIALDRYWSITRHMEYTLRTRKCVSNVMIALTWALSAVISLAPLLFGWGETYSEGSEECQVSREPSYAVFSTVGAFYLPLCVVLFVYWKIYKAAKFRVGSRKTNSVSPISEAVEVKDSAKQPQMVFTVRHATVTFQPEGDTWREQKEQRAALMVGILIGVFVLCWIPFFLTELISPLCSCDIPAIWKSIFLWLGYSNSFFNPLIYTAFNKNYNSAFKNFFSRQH

SMILES strings stand for the structures.

Take `COc1cccc(Cl)c1Cc1cc2cnccc2nc1N` [Example 57, 3-(2-Chloro-6-methoxybenzyl)-1,6-naphthyridin-2-amine]: the inhibition constant (Ki) (in general, the equilibrium dissociation constant of an inhibitor or competing ligand from its target) was less than 300 nM.
